This is one part of the list. Shown are side measurements of this screen, not its main read-out; they come without a call. Most of these compounds were active or inconclusive in the main read-out, so they are no random draw. Potencies come from curve fits of mixed quality, noted in brackets.
Assay: qHTS Assay for Lipid Storage Modulators in Drosophila S3 Cells;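 as to cell number change: cells counted by Cell Tracker Red CMTPX staining in the red channel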
Details: BODIPY lipid droplet fluorescence, 18-24 h; for cell number change: measured here: cell count max response, cells fed with added oleic acid
Summary of the method: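 Laser-scanning cytometry quantifies lipid droplet accumulation (500–530 nm total intensity; droplet/cell object ratio) in oleic acid-fed (400 uM added) Drosophila S3 cells treated with a concentration series. 20 uM Triacsin C defined 100% inhibition.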

[1] = measured here: cell number channel AC50, cells fed with added oleic acid
[2] = measured here: lipid fluorescence (Fed channel) AC50, cells fed with added oleic acid

Structure (SMILES)	cell number change	AC50 [1]	AC50 [2]
O=C1NC(=Nc2cccc(O)c2)S/C1=C\c1cccc([N+](=O)[O-])c1	8.45%		
N#Cc1nc(-c2ccco2)oc1N1CCOCC1	-19.5%	6.51 µM [falling, single point]	
COc1ccc(CC(=O)NCc2nnc(SCC(=O)Nc3nccs3)n2C)cc1	57.7%	29.1 µM [rising, single point]	
COc1ccc(NC(=O)CN2CCN(CC(=O)Nc3ccc(F)cc3F)CC2)cc1	5.56%		6.51 µM [falling, partial curve, poor fit]
CC(c1ccccc1)N1CC(C(=O)N2CCN(c3ccccc3)CC2)CC1=O (stereo unspecified)	39.9%	0.146 µM [rising, partial curve, poor fit]	
Cc1ccc(S(=O)(=O)NNC(=O)C(=O)NNc2ccccn2)cc1	-4.27%		0.082 µM [rising, full curve, poor fit]
CC1(c2ccccc2Cl)NC(=O)N(CC(=O)NCc2ccco2)C1=O (stereo unspecified)	-22.8%		5.8 µM [rising, single point]
CN1CCN(C(=O)/C(=C/c2cccnc2)NC(=O)c2cccc(Br)c2)CC1			0.291 µM [falling, partial curve, poor fit]
c1ccc2c(c1)CCN(C1=Nc3cccc4cccc1c34)C2	3.66%		0.00517 µM [falling, full curve, poor fit]
Cc1cc(NC(=O)c2cc(-c3ccc(Br)cc3)on2)no1	22.2%	0.58 µM [rising, partial curve]	0.164 µM [rising, full curve, poor fit]
Cc1nnc(N/N=C/c2cc([N+](=O)[O-])c(N3CCC(C)CC3)cc2N2CCC(C)CC2)n1N	-62.8%		23.1 µM [falling, single point]
Cc1cc(C(=O)NNC(=O)Nc2cccc(C(F)(F)F)c2)no1	-11.1%		5.8 µM [falling, partial curve]
COC(=O)[C@@H](NC(=O)NC1CCCc2ccccc21)C(C)C (stereo partly specified)	4.38%		0.00461 µM [falling, full curve, poor fit]
C=CCn1c(Cc2csc(N)n2)nnc1SCC(=O)Nc1ccccc1C(F)(F)F	75%	8.2 µM [rising, partial curve]	14.6 µM [rising, partial curve]
CC1CCc2c(sc(NC(=O)Cn3nc(C(F)(F)F)c4c3CCCCC4)c2C#N)C1 (stereo unspecified)	-14.3%		
O=C(c1ccc(Cl)cc1)n1cnc2ccccc21	10.6%		
Cc1cc(C)c(NC(=O)CN(C2CCCCC2)C2CCCCC2)c(C)c1	-60%	18.4 µM [falling, partial curve]	
C[N+]1(C2CCC3CCC2C3O)CCCC1 (stereo unspecified)	74.3%	2.06 µM [rising, partial curve]	
O=C(O)c1ccc(S(=O)(=O)c2ccccc2)cc1	3.11%		6.51 µM [rising, single point]
Cc1cccc(Nc2nnc(SCc3cc(=O)n4cc(C)ccc4n3)s2)c1	7.31%		

An excerpt from above in order of length of the SMILES, low to high:
Structure (SMILES)	cell number change	AC50 [1]	AC50 [2]
C[N+]1(C2CCC3CCC2C3O)CCCC1 (stereo unspecified)	74.3%	2.06 µM [rising, partial curve]	
Cc1cc(C(=O)NNC(=O)Nc2cccc(C(F)(F)F)c2)no1	-11.1%		5.8 µM [falling, partial curve]
Cc1nnc(N/N=C/c2cc([N+](=O)[O-])c(N3CCC(C)CC3)cc2N2CCC(C)CC2)n1N	-62.8%		23.1 µM [falling, single point]

Following part.

Structure (SMILES)	cell number change	AC50 [1]	AC50 [2]
Cc1cc(C)n(-c2ccc(C(=O)Nc3cccc(S(=O)(=O)N(C)C)c3)cc2)n1	-49.6%	20.6 µM [falling, partial curve]	11.6 µM [falling, partial curve]
CC(=O)N1CCN(S(=O)(=O)c2ccc(C)cc2)C1C(C)C (stereo unspecified)	4.45%		5.8 µM [falling, single point]
Cc1cc(C)c2c(n1)sc1c(N3CCCCC3)ncnc12	-0.516%		0.116 µM [rising, full curve, poor fit]
Cc1cccc(C(=O)NCC(=O)NCC(c2ccco2)N2CCCCC2)c1 (stereo unspecified)	3.86%	6.51 µM [falling, single point]	6.51 µM [falling, single point]
Cc1cc(-n2nc(C)cc2C)n2nc(C)c(-c3ccccc3)c2n1	63.9%	9.2 µM [rising, partial curve]	4.11 µM [rising, partial curve]
COc1cc(C(=O)NC(=S)Nc2nc(-c3ccc(F)cc3)cs2)cc(OC)c1OC	6.99%		0.517 µM [rising, partial curve]
O=C(CSc1nccn(-c2ccc(Br)cc2)c1=O)NCc1ccccc1		4.61 µM [rising, single point]	
CCOC(=O)C1=C(C)N=c2s/c(=C/c3cccc([N+](=O)[O-])c3O)c(=O)n2C1c1ccccc1 (stereo unspecified)	-15.5%		29.1 µM [falling, single point]
N/C(=N\OC(=O)c1cc(-c2ccccc2)nc2ccccc12)c1ccncc1	-11.9%	0.517 µM [falling, single point]	
Cc1ccccc1OCc1ccc(C(=O)N2CCOCC2)o1	18.9%		29.1 µM [rising, single point]
CCN(CC)c1ccc2nc3ccccc3[n+](CC)c2c1	-73.1%	25.9 µM [falling, partial curve, poor fit]	0.731 µM [falling, full curve]
Cc1ccc(N2CC(NC(=O)C(=O)c3c(C)[nH]c4ccccc34)CC2=O)cc1 (stereo unspecified)	28.3%		
COc1cc(CNCCc2ccccc2)ccc1OCC(N)=O	-15.4%		1.3 µM [falling, partial curve]
CN(C)c1ccc(C(CNS(=O)(=O)c2cccc([N+](=O)[O-])c2)N2CCOCC2)cc1 (stereo unspecified)	1.58%		18.4 µM [rising, partial curve]
COc1ccccc1NC(=O)C(C)OC(=O)CSCC(=O)Nc1ccc(C)cc1C (stereo unspecified)	26.2%		
Cc1ccc2nccc(C(=O)N3CCCC(N4CCN(c5ccc(F)cc5)CC4)C3)c2c1 (stereo unspecified)	30%	3.26 µM [rising, full curve, poor fit]	8.2 µM [rising, partial curve]
O=C(CS(=O)(=O)c1c[nH]c2ccccc12)N1CCCc2ccccc21	13.5%		0.651 µM [falling, single point]
CCOC(=O)N1CCN(C(=O)c2nn(-c3ccc(C)cc3)c(=O)c3c2c2ccccc2n3C)CC1	-9.4%		3.26 µM [falling, single point]
O=C(O)c1ccccc1-c1ccc(/C=c2\sc3nc4cc(Br)cnc4n3c2=O)o1	-89.6%	20.6 µM [falling, single point]	
CCN(C(=O)Cn1ccc(C(F)(F)F)n1)c1c(N)n(Cc2ccccc2)c(=O)[nH]c1=O	8.63%		0.206 µM [falling, full curve, poor fit]

Of the compounds above, these have a COOH group.
Structure (SMILES)	cell number change	AC50 [1]	AC50 [2]
O=C(O)c1ccc(S(=O)(=O)c2ccccc2)cc1	3.11%		6.51 µM [rising, single point]
O=C(O)c1ccccc1-c1ccc(/C=c2\sc3nc4cc(Br)cnc4n3c2=O)o1	-89.6%	20.6 µM [falling, single point]	

The listing continues:

Structure (SMILES)	cell number change	AC50 [1]	AC50 [2]
CCOc1cc(C(=O)CCC(=O)OCC(=O)Nc2ccc(C)c(S(=O)(=O)N(C)C)c2)ccc1O	49%	0.92 µM [rising, full curve, poor fit]	
CCC1=NN2C(=N)/C(=C\c3cccn3-c3c(C)cccc3C)C(=O)N=C2S1	-2.7%		2.91 µM [falling, full curve, poor fit]
N#Cc1ccccc1NC(=O)CNc1cc(S(=O)(=O)N2CCOCC2)ccc1NCC1CCCO1 (stereo unspecified)	89.8%	29.1 µM [rising, single point]	
CC1CCCN(C(=O)C2CCN(S(=O)(=O)c3cccc4nonc34)CC2)C1 (stereo unspecified)	-17.5%		29.1 µM [rising, single point]
CCCCC1(O)CC(C(F)(F)F)=NN1C(=O)COc1ccccc1 (stereo unspecified)	-45%	16.4 µM [falling, single point]	29.1 µM [falling, single point]
Cc1ncc([N+](=O)[O-])n1CC(=O)NC1CCCCC1	-5.4%	6.51 µM [falling, single point]	
CC(=O)Nc1ccc(S(=O)(=O)N2CCCC3CCCCC32)cc1 (stereo unspecified)	38.1%	0.92 µM [rising, full curve, poor fit]	18.4 µM [rising, single point]
COc1ccc(S(=O)(=O)N(C)CC(=O)O)c2ccccc12	-4.5%		0.103 µM [falling, full curve, poor fit]
COc1ccc(CCNC(=O)C23CCC(C)(C(=O)C2Br)C3(C)C)cc1OC (stereo unspecified)	-1.28%		7.31 µM [falling, partial curve, poor fit]
CN(Cc1ccccc1Cl)C(=O)CCNC(=O)c1ccco1	750%	1.84 µM [rising, full curve]	
Cc1onc(-c2ccccc2)c1C(=O)OCC(=O)NC(C)c1ccc(Cl)cc1 (stereo unspecified)	19.6%		0.651 µM [rising, single point]
C=C(C)CN(CC)c1nc(N)c(C#N)c(CC#N)c1C#N	0.488%		1.3 µM [falling, partial curve]
Cc1ccc(S(=O)(=O)NCc2ccc(C(=O)N3CCc4ccccc4C3)cc2)cc1	-1.09%		0.731 µM [rising, full curve, poor fit]
C=CCn1c2ccccc2c(=O)c2cc(C#Cc3ccccn3)ccc21	12.2%		0.00651 µM [falling, full curve, poor fit]
COC(=O)C1=C(C)Nc2[nH]c(=S)[nH]c(=O)c2C1c1ccc(O)cc1 (stereo unspecified)	12.9%		6.51 µM [falling, single point]
COC(=O)c1ccc(COC(=O)CCNS(=O)(=O)c2ccc(C)c(C)c2)cc1	-13.5%		
CC(C)c1ccc(/C=N/n2c(-c3ccccc3)n[nH]c2=S)cc1	-37.6%	20.6 µM [falling, single point]	29.1 µM [falling, single point]
CCC(C)NC(=O)CSc1n[nH]c(=O)n1CCc1ccccc1 (stereo unspecified)	4.35%		
